Our source for the growth inhibition values is the supplement of paper PMC3047530.

Molecules are shown by their SMILES. This is one part of the list. Single values are uncertain, as repeats are few or missing.

For the assay, the system named is Geomyces destructans. As to the kind of experiment: growth inhibition relative to DMSO control; higher = stronger growth inhibition. The note with it: 10 µM; 15 °C; incubation time 10 days.
Consider `C#CC1(O)CC[C@H]2[C@@H]3CCC4=CC(=O)CC[C@@H]4[C@H]3CC[C@@]21CC` (mixture of isomers), for which the growth inhibition is -16.4%.
The figure for `CC(=O)OCC(=O)[C@@]12OC3(CCCC3)O[C@@H]1C[C@H]1[C@@H]3CCC4=CC(=O)C=C[C@]4(C)[C@@]3(F)[C@@H](O)C[C@@]12C` is -8.36%.
Turning to `C[C@@H]1O[C@@H](O[C@H]2[C@H](Oc3cc(O)c4c(c3)O[C@H](c3ccc(O)cc3)CC4=O)O[C@H](CO)[C@@H](O)[C@@H]2O)[C@H](O)[C@H](O)[C@H]1O`, the growth inhibition is -23.1%.
The figure for `COc1cc2c(cc1OC)Cc1cc(OC)c(OC)cc1Cc1cc(OC)c(OC)cc1C2` is -3.14%.
In the case of `COc1c(O)cc(O)cc1O` it was -7.85%; in that of `C[C@H](CCC(=O)O)[C@H]1CC[C@H]2[C@@H]3C[C@H](O)[C@@H]4C[C@H](O)CC[C@]4(C)[C@H]3CC[C@]12C` [alpha-HYODEOXYCHOLIC ACID], -14.6%; in that of `CC(=O)Nc1ccc(OCC(O)CNC(C)C)cc1` (stereo not given), -14.1%.
For `CN1[C@@H]2CC[C@H]1C[C@@H](OC(c1ccccc1)c1ccccc1)C2`, the growth inhibition came to 17.9%.
The figure for `C[C@@H]1O[C@@H](OC[C@H]2O[C@@H](Oc3c(-c4ccc(O)c(O)c4)oc4cc(O)cc(O)c4c3=O)[C@H](O)[C@@H](O)[C@@H]2O)[C@H](O)[C@H](O)[C@H]1O` [RUTOSIDE  (rutin)] is -7.02%; for `CCCC(=O)Nc1ccc(OCC(O)CNC(C)C)c(C(C)=O)c1` (stereo not given) it is -28.7%.
The figure for `COc1ccc(Cl)cc1C(=O)NCCc1ccc(S(=O)(=O)NC(=O)NC2CCCCC2)cc1` is -20.8%; for `CC(C)=CCC1=C(O)C(=O)c2ccccc2C1=O` it is -31.4%.
In the case of `CCCOc1ccccc1-c1nc2[nH]nnc2c(=O)[nH]1` it was -6.7%.
`CN(C(=O)CN(CCO)CC(=O)N(C)C(C)(C)Cc1ccccc1)C(C)(C)Cc1ccccc1`: the growth inhibition was -4.14%.
In the case of `CC1(C)O[C@@H]2C[C@H]3[C@@H]4C[C@H](F)C5=CC(=O)C=C[C@]5(C)[C@@]4(F)[C@@H](O)C[C@]3(C)[C@]2(C(=O)CO)O1` it was -4.5%; in that of `CC(C)=CCc1c2c(c3occ(-c4ccc(O)c(O)c4)c(=O)c3c1O)C=CC(C)(C)O2`, 0.0912%.
The figure for `COc1cc(NS(=O)(=O)c2ccc(N)cc2)ncn1` is -12.5%.
The figure for `Cc1cc(C)nc(NS(=O)(=O)c2ccc(N)cc2)n1` is -1.42%.
On to `NCCC(=O)N[C@@H](Cc1c[nH]cn1)C(=O)O`, for which the growth inhibition was -5.33%.
For the molecule `COC(=O)c1c(C)c2c(c(C)c1OC)OC(=O)c1c(C)c(Cl)c(OC)c(Cl)c1O2`, the growth inhibition was -3.93%.
In the case of `NC[C@H]1O[C@H](O[C@H]2[C@H](O)[C@@H](O[C@H]3O[C@H](CO)[C@@H](O)[C@H](N)[C@H]3O)[C@H](N)C[C@@H]2N)[C@H](N)C[C@@H]1O` it was -17.6%.
The figure for `COc1c(Cl)ccc(Cl)c1C(=O)O` is -5.76%; for `COc1ccc2c(=O)c(-c3ccc(O[C@@H]4O[C@H](CO)[C@@H](O)[C@H](O)[C@H]4O)cc3)coc2c1` it is 4.79%; for `CC(=O)Nc1ccc(OC(=O)c2ccccc2O)cc1` it is -9.26%.
The figure for `COC(=O)C[C@H]1C2(C)CC34OC5(C)O[C@@]6([C@H](OC(C)=O)C(OC(C)=O)[C@]7(C)C(/C(=C(/O)C(C)C)C(=O)O[C@H]7c7ccoc7)[C@@]6(O5)[C@H](OC(C)=O)[C@@]3(O)C2OC(=O)C(C)C)[C@]14C` (stereo not given in full) is -16.6%; for `COc1cc(OC)c2ccc(=O)oc2c1` it is -28.2%.
As for `O=C(CCBr)N1CCN(C(=O)CCBr)CC1`, the growth inhibition is -8.15%.
In the case of `CCCCC1C(=O)N(c2ccccc2)N(c2ccc(O)cc2)C1=O` (stereo not given) it was -29.2%; in that of `CC(=O)O[C@@H]1CC(=O)[C@@]2(C)C(CC(=O)[C@]3(C)C2CC[C@@]2(C)[C@H](c4ccoc4)OC(=O)C4OC423)C1(C)C` (stereo not given in full), -5.07%.
The figure for `Cc1cc(=O)c2c(O)c3c(cc2o1)OCC(C)CC3` (stereo not given) is 2.83%; for `CCN(CC)CCOCCOC(=O)C1(c2ccccc2)CCCC1` it is -6.23%.
In the case of `CC(C)C[C@@H](NC(=O)OCC1c2ccccc2-c2ccccc21)C(=O)O` it was -10%; in that of `Cc1cc(C(C)(C)C)cc(C)c1CC1=NCCN1`, -26.2%.
For `CCN(CCCCOC(=O)c1ccc(OC)c(OC)c1)C(C)Cc1ccc(OC)cc1` (stereo not given), the growth inhibition is -41%.
As for `O=C(Oc1cc(O)cc2c1C[C@@H](OC(=O)c1cc(O)c(O)c(O)c1)[C@@H](c1cc(O)c(O)c(O)c1)O2)c1cc(O)c(O)c(O)c1`, the growth inhibition is -22.3%.
The figure for `COc1ccc(-c2coc3c(OC)c(OC)cc(OC)c3c2=O)cc1` is 1.69%; for `CCCCCCOc1ccccc1C(N)=O` it is -3.79%; for `NC[C@H](O)c1ccc(O)c(O)c1` it is -30.1%.
The figure for `CCN(CC)CCNC(=O)c1ccc(N)cc1` is -22.2%; for `Cc1ccc(-c2cc(C(F)(F)F)nn2-c2ccc(S(N)(=O)=O)cc2)cc1` it is 1.7%; for `COC(=O)C[C@H]1C(C)(C)C2(Cl)O[C@@]34CC2C(=O)[C@]1(C)C3CC[C@]1(C)C4=CC(=O)O[C@H]1c1ccoc1` (stereo partly drawn) [3-CHLORO-8beta-HYDROXYCARAPIN, 3,8-HEMIACETAL] it is -8.86%.
In the case of `CC(C)[N+]1(C)[C@@H]2CC[C@H]1C[C@@H](OC(=O)C(CO)c1ccccc1)C2` (stereo not given in full) it was 1.31%; in that of `COc1cc2ccc(=O)oc2c(O)c1O`, -14.2%.
Consider `O=c1c(-c2ccc3c(c2)OCO3)coc2cc(O)ccc12`, for which the growth inhibition came to 3.82%.
In the case of `Nc1ccc(S(=O)(=O)Nc2nccs2)cc1` it was -0.218%.
As to `COC(=O)C(O)c1ccccc1` (stereo not given), the growth inhibition was found to be 84.2%.
In the case of `COc1cc2c(cc1/C=C/C(=O)c1cc(OC)c(OC)cc1OC)OCO2` it was -4.09%; in that of `CCOC(=O)C(Cc1ccc(O)cc1)NC(C)=O` (stereo not given), -11.1%; in that of `CC[C@H]1OC(=O)[C@H](C)[C@@H](O[C@H]2C[C@@](C)(OC)[C@@H](O)[C@H](C)O2)[C@H](C)[C@@H](O[C@@H]2O[C@H](C)C[C@H](N(C)C)[C@H]2O)[C@](C)(O)C[C@@H](C)CN(C)[C@H](C)[C@@H](O)[C@]1(C)O`, -35.3%.
The figure for `C[C@@H]1CCC[C@H](C)N1NC(=O)c1ccc(Cl)c(S(N)(=O)=O)c1` is 1.28%; for `O=C(/C=C/c1ccc(O)c(O)c1)O[C@H](Cc1ccc(O)c(O)c1)C(=O)O` it is -12.2%.
The figure for `COc1cccc2c1CCC1CC(=O)CC[C@]21C` (stereo not given in full) is -3.17%; for `C=C1C2CCC3(C)C(c4ccoc4)OC(=O)CC13OC1CC(=O)C(C)(C)C(CC(=O)OC)C12C` (stereo not given) it is 1.25%.
As for `O=C(O)c1c2ccccc2cc2ccccc12`, the growth inhibition was -7.65%.
In the case of `CO/N=C(\C(=O)N[C@@H]1C(=O)N2C(C(=O)O)=C(COC(C)=O)CS[C@H]12)c1csc(N)n1` it was 5.24%.
